Assay results published in article PMC8357146.

Target: transforming growth factor beta (human (endogenous in gastric tissue))
Assay: co-IP; whole tissue lysates (3 pairs of gastric tumor and adjacent normal tissue, RIPA buffer) incubated with anti-TGF-β1 antibody and agarose-protein A/G beads at 4°C overnight; washed with lysis buffer; immunoblotted with anti-DCN and anti-ASPN

B1: asporin (protein, UniProt Q9BXN1 33-380)
chain: DMEDTDDDDDDDDDDDDDDEDNSLFPTREPRSHFFPFDLFPMCPFGCQCYSRVVHCSDLGLTSVPTNIPFDTRMLDLQNNKIKEIKENDFKGLTSLYGLILNNNKLTKIHPKAFLTTKKLRRLYLSHNQLSEIPLNLPKSLAELRIHENKVKKIQKDTFKGMNALHVLEMSANPLDNNGIEPGAFEGVTVFHIRIAEAKLTSVPKGLPPTLLELHLDYNKISTVELEDFKRYKELQRLGLGNNKITDIENGSLANIPRVREIHLENNKLKKIPSGLPELKYLQIIFLHSNSIARVGVNDFCPTVPKMKKSLYSAISLFNNPVKYWEMQPATFRCVLSRMSVQLGNFGM
In the case of B1, the binding is reported as “binds”.

No constants are given. Whether binding was seen depends on the method and setting. In cells and extracts the contact can be indirect. A result given as binding can be weak or reduced; the word gives no strength.
